# Screen size: about 340,000 compounds; about 170 (0.05%) were called active. The inconclusive results got no clear call from the source; some entries with a clear call stand among them for comparison. Calls come from the whole dose curve; as a rule, active = well fitted inhibition curve with a large enough effect in the signal ratio, with a control signal flat (not every such curve was filed as active); inconclusive = small, poorly fitted or top-dose-only effect, or effect the other way, or a change in a side signal; inactive = flat fitted curve, though single readings scatter; the % refers to the signal ratio. Where the call is inconclusive, the potency comes from a doubtful curve fit.
# Test: qHTS Assay to Find Inhibitors of Chronic Active B-Cell Receptor Signaling;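 for activity change, negative = inhibition: plate controls were basal doxycycline-induced cells for no effect and cells given 10 µM MG132 for full effect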
# Conditions: ABC-DLBCL IkBa-CBG/CBR reporter, luminescence ratio (green luciferase fused to IkBa over red control in TMD8 lymphoma cells), 4 h; activity change, negative = inhibition: at 46.1 µM (top of the series) unless noted
# Summary of the method: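 TMD8 human ABC-DLBCL cells with doxycycline-inducible IκBα–green luciferase fusion and unfused red luciferase, in 0.5% FBS medium; compounds up to 46 uM, 4 h at 37C. Green/red luminescence ratio, filter-overlap corrected, fitted to concentration-response curves.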
# Potency is the fitted concentration of half-maximal effect.
SMILES,Potency,"activity change, negative = inhibition"
O=Cc1c(Sc2ccccn2)nc2ccccn2c1=O,"inconclusive: 29.1 µM [falling, single point]",–
Cc1cccn2c(CNCCCOc3cccnc3)c(C(=O)N3CCOCC3)nc12,–,inconclusive: -21.2%
COc1cccc(CNC(=O)C(=O)NCC2OCCCN2S(=O)(=O)c2cc(C)ccc2C)c1 (stereo not drawn),–,inconclusive: -25%
Oc1ccc(N2CCN(c3ccnc4cc(Cl)ccc34)CC2)cc1,–,inactive: 1.18%
CN(C)CCCNc1ncnc2oc(-c3ccccc3)c(-c3ccccc3)c12,–,inactive: -0.39%
CCC(C)Cn1c(S(=O)(=O)O)nc2ccccc21 (stereo not drawn),–,inconclusive: 1.07%
Brc1csc(/C=N/Nc2nc3ccccc3s2)c1,"inconclusive: 5.17 µM [falling, partial curve]",–
Cc1cc(C)cc(OCc2ccc(C(=O)NC3CCOC3=O)o2)c1 (stereo not drawn),"inconclusive: 31.6 µM [falling, partial curve]",–
O=C(CCN1CCc2ccccc2CC1)c1ccc2c(c1)OCCO2,"inconclusive: 14.6 µM [rising, partial curve, poor fit]",–
COc1ccc(NC(=O)c2ccc(NC(=O)COC(=O)c3cnc(C)cn3)cc2)cc1,–,inactive: -10.1%
CC(C)OCCCN1C(=O)c2[nH]nc(-c3ccccc3O)c2C1c1cccc(Cl)c1 (stereo not drawn),–,inconclusive: 10.1%
N#CC(C#N)=c1ccc2c(c1)NC1(CCCCC1)N=2,–,inactive: 4.94%
CC(C)NC[C@@H](O)COc1cccc2ccccc12,–,inactive: -9.02%
CC(C)COc1ccc(C(=O)Nc2cc(S(=O)(=O)N3CCOCC3)ccc2N2CCCC2)cc1,–,inconclusive: -0.88%
COc1ccc(Cl)cc1NC(=S)NCCc1ccc(F)cc1,–,inactive: 1.53%
CC(/C=N/Nc1ccc2nncn2n1)=C\c1ccccc1,–,inconclusive: 6.43%
Cc1cc2ccccn2c1C(=O)c1ccc(NN)c([N+](=O)[O-])c1,–,inconclusive: -19.4%
NC1=NN(c2cccc(C(=O)O)c2)C(=O)C1,"inconclusive: 16.4 µM [falling, partial curve]",–
COc1ccc(-c2[nH]ncc2CN2CCSCC2)c(OC)c1,–,inconclusive: 12.8%
c1ccc(-c2nnc3n2N=C(c2ccc4c(c2)OCO4)CS3)nc1,"inconclusive: 11.2 µM [falling, partial curve, poor fit]",–
CCOC(=O)C1=NN(c2ccc(Cl)cc2)C(=O)C1,–,inconclusive: 4.8%

SMILES,Potency,"activity change, negative = inhibition"
Cc1[nH][nH]c(=O)c1C(c1ccc(-c2ccc(Cl)cc2)o1)c1c(C)[nH][nH]c1=O,–,inconclusive: -26.3%
CN(c1ccccc1)S(=O)(=O)c1ccc(C(=O)NCCc2ccccc2)cc1,–,inconclusive: 20.6%
CNC(=O)/C=C1\NC(C)(C)Cc2c1ccc1ccccc21,–,inactive: -0.575%
COc1ccc2c(c1)OC[C@H]1[C@H]2N2C(=O)c3cc(F)ccc3NC(=O)[C@@]2(C)[C@H]1c1ccccc1,–,inconclusive: 5.01%
CCCN(CC(=O)Nc1ccccc1C)C(=O)c1ccc(S(=O)(=O)N2CCCCCC2)cc1,–,inactive: -0.525%
CN(Cc1c(C(=O)N/N=C/c2cccc(Cl)c2)nnn1-c1nonc1N)c1ccccc1,–,inactive: 2.89%
O=C(Nc1nnc(C2CCCCC2)s1)C1CC(=O)N(c2ccc(F)cc2)C1 (stereo not drawn),–,inconclusive: -1.56%
CCOC(=O)C1C(=O)CC(C)(O)C(C(=O)OCC)C1/C=C/c1ccccc1 (stereo not drawn),–,inactive: -3.77%
Cc1cccc(NC(=O)c2ccc(-c3ccccc3[N+](=O)[O-])o2)c1,–,inconclusive: -6.19%
CCC(C)(C)NC(=O)Cc1ccccc1OC,–,inconclusive: 18.8%
CCCN(CCC)CC(O)Cn1cc(/C=C/C(=O)c2cccs2)c2ccccc21 (stereo not drawn),"inconclusive: 29.1 µM [falling, single point]",–
O=[N+]([O-])c1ccc2[nH]cc(S(=O)(=O)N3CCN(c4cccc(Cl)c4)CC3)c2c1,–,inconclusive: 11.6%
COc1ccc(-c2cccc([C@H]3[C@@H]4C=CCC[C@@]4(C)C(=O)N3Cc3ccccc3)c2)cc1,–,inconclusive: -26.9%
C/C(=N\NC(=O)c1cc(C2CC2)nc2ccccc12)c1ccc(O)cc1O,"inconclusive: 20 µM [falling, single point]",–
CCN(CCO)c1ccc(N=Nc2cc(C)[nH]n2)cc1,–,inactive: -21.5%
COc1ccc(Cl)cc1NC(=O)C1CC(c2c(F)cccc2Cl)=NO1 (stereo not drawn),–,inconclusive: 9.63%
CC(C)(C)c1cc(NC(=O)c2cc(F)c(F)c(F)c2F)no1,"inconclusive: 3.26 µM [falling, partial curve, poor fit]",–
O=C(CSC1=NS(=O)(=O)c2cc(F)ccc2N1)Nc1ccc(F)cc1,–,inactive: -0.022%
COc1ccc(C(=O)C(C)OC(=O)CN2C(=O)c3ccccc3C2=O)cc1 (stereo not drawn),–,inconclusive: 16.4%
CCCS(=O)(=O)NCCc1csc2nc(-c3ccc(OC)cc3)nn12,–,inconclusive: -2.96%
CCOc1c(Cl)cc(CNCC(C)C)cc1OC,–,inconclusive: -13.9%

SMILES,Potency,"activity change, negative = inhibition"
N#Cc1ccccc1NC(=O)CSc1nnc(-c2ccccc2)n1-c1ccccc1,–,inactive: 4.27%
Cc1ccc(/C=N/NC(=O)c2cccs2)s1,"inconclusive: 18.4 µM [falling, partial curve]",–
Cc1cc(F)ccc1S(=O)(=O)N1CCCOC1CNC(=O)C(=O)NCc1ccncc1 (stereo not drawn),–,inactive: -4.59%
Cc1ccc(NC(=O)CN2C(=O)NC(C)(C3CC3)C2=O)c([N+](=O)[O-])c1 (stereo not drawn),–,inconclusive: 6.88%
C=CCNC(=O)N1CCC(c2nc3ccccc3s2)CC1,–,inactive: 1.65%
O=C(CNC(=O)c1ccc(N2CCCC2=O)cc1)Nc1ccc(F)c(F)c1F,–,inactive: 0.577%
COc1ccc(-c2cc(C(=O)N3CC4(C)CC3CC(C)(C)C4)no2)cc1OC (stereo not drawn),–,inconclusive: -9.34%
CCn1c(NC(=O)c2ccc(C)cc2)c2ccccc2nc1=O,–,inconclusive: -13.8%
COc1ccccc1N(CC(=O)NCCSCc1ccc(Cl)cc1)S(C)(=O)=O,–,inconclusive: -6.65%
O=C1/C(=C/Nc2ccc3c(c2)OCO3)CCc2ccccc21,"inconclusive: 3.66 µM [falling, partial curve, poor fit]",–
Oc1ccc(-c2csc(-c3cccnc3)n2)cc1O,–,inconclusive: -19.1%
CCOC(=O)c1c(NC(=O)c2ccc(Cl)cc2)csc1C,"inconclusive: 11.6 µM [falling, partial curve]",–
COc1ccc(CN(C)C(=O)c2cccc(Oc3ccccc3)c2)c(OC)c1OC,–,inactive: 6.86%
O=C(CSc1ccc2ccccc2c1)Nc1ccncc1,–,inconclusive: -3.3%
CCOC(=O)c1sc(NC(=O)c2cccnc2)nc1C,–,inconclusive: -11.9%
CC(NC(=O)Cc1ccc(NS(=O)(=O)c2cccc(C(F)(F)F)c2)cc1)c1ccccn1 (stereo not drawn),–,inactive: 3.96%
O=C(COC(=O)c1ccccc1Br)NCCC1=CCCCC1,–,inconclusive: 3.2%
O=C(CSc1ccc(Cl)cc1)Nc1cccc(-c2nc3ccccc3[nH]2)c1,–,inactive: 18.3%
CN1C(=S)SC(C)(NO)C1(C)C (stereo not drawn),–,inconclusive: 1.59%
O=C(Nc1cc(Cl)cc(Cl)c1)C1CCC(=O)N1Cc1ccccc1Cl (stereo not drawn),"inconclusive: 29.1 µM [falling, single point]",–
CCOc1ccc(C2/C(=C(\O)c3ccc4c(c3)OCCO4)C(=O)C(=O)N2CCN2CCOCC2)cc1OC (stereo not drawn),–,inactive: 0.36%

# Laid out differently: 15 of the compounds above
SMILES	Potency	activity change, negative = inhibition
COc1ccc(-c2cc(C(=O)N3CC4(C)CC3CC(C)(C)C4)no2)cc1OC (stereo not drawn)	–	inconclusive: -9.34%
CCn1c(NC(=O)c2ccc(C)cc2)c2ccccc2nc1=O	–	inconclusive: -13.8%
COc1ccccc1N(CC(=O)NCCSCc1ccc(Cl)cc1)S(C)(=O)=O	–	inconclusive: -6.65%
O=C1/C(=C/Nc2ccc3c(c2)OCO3)CCc2ccccc21	inconclusive: 3.66 µM [falling, partial curve, poor fit]	–
Oc1ccc(-c2csc(-c3cccnc3)n2)cc1O	–	inconclusive: -19.1%
CCOC(=O)c1c(NC(=O)c2ccc(Cl)cc2)csc1C	inconclusive: 11.6 µM [falling, partial curve]	–
COc1ccc(CN(C)C(=O)c2cccc(Oc3ccccc3)c2)c(OC)c1OC	–	inactive: 6.86%
O=C(CSc1ccc2ccccc2c1)Nc1ccncc1	–	inconclusive: -3.3%
CCOC(=O)c1sc(NC(=O)c2cccnc2)nc1C	–	inconclusive: -11.9%
CC(NC(=O)Cc1ccc(NS(=O)(=O)c2cccc(C(F)(F)F)c2)cc1)c1ccccn1 (stereo not drawn)	–	inactive: 3.96%
O=C(COC(=O)c1ccccc1Br)NCCC1=CCCCC1	–	inconclusive: 3.2%
O=C(CSc1ccc(Cl)cc1)Nc1cccc(-c2nc3ccccc3[nH]2)c1	–	inactive: 18.3%
CN1C(=S)SC(C)(NO)C1(C)C (stereo not drawn)	–	inconclusive: 1.59%
O=C(Nc1cc(Cl)cc(Cl)c1)C1CCC(=O)N1Cc1ccccc1Cl (stereo not drawn)	inconclusive: 29.1 µM [falling, single point]	–
CCOc1ccc(C2/C(=C(\O)c3ccc4c(c3)OCCO4)C(=O)C(=O)N2CCN2CCOCC2)cc1OC (stereo not drawn)	–	inactive: 0.36%

# Following part

SMILES,Potency,"activity change, negative = inhibition"
CC(C)Cc1nnc(NC(=O)C2CCN(C(=O)c3ccc(Cl)cc3)CC2)s1,–,inconclusive: 13.6%
S=C(NCC1CCCCC1)Nc1ccc(Oc2ccccc2)cc1,–,inconclusive: -6.86%
COc1cc(S(=O)(=O)N2CCOCC2)ccc1NC(=O)CSc1nnc(N)s1,–,inconclusive: 1.24%
COc1ccc(OC)c(/C=C/C(=O)c2ccc3c(c2)OCCO3)c1,"inconclusive: 35.5 µM [falling, single point]",–
Cc1nn(-c2ccccc2)c(C)c1C(=O)OCc1ccc(C#N)cc1,–,inactive: -6.63%
Cn1c(-c2sc3ccccc3c2Cl)n[nH]c1=S,–,inconclusive: 3.06%
O=C(NC1CCCCC1)c1cccc2c1C(=O)c1ccc(N3CCCC3)cc1S2(=O)=O,–,inconclusive: -17.7%
CC(C)(C)C(=O)Nc1sc(-c2ccccc2)cc1C(=O)O,–,inconclusive: -1.65%
CSCCC(NC(=O)/C(=C/c1ccc2c(c1)OCO2)NC(=O)c1cccc([N+](=O)[O-])c1)C(=O)O (stereo not drawn),–,inactive: 11.6%
O=C(c1ccc(S(=O)(=O)N2CCCCCC2)cc1)N(c1ccccn1)C1CCCCC1,–,inactive: 0.187%
COc1ccccc1/C(C)=N/NC(=S)NCc1ccccc1,"inconclusive: 28.2 µM [falling, single point]",–
Cc1ccccc1-n1c(=O)n(Cc2ccccc2)c(=O)c2[nH]cnc21,–,inconclusive: -16.5%
Cc1cc(-c2ccccc2)n2ncc(-c3ccccc3)c2n1,"inconclusive: 29.1 µM [rising, single point]",–
O=C(c1cc2cc([N+](=O)[O-])ccc2oc1=O)N1CCN(c2ncccn2)CC1,–,inconclusive: 1.96%
C/C(CCc1ccc2c(c1)OCO2)=N\NC(=S)NC(C)C,"inconclusive: 35.5 µM [cytotoxic, single point]",–
COc1ccc(-c2nnc(-c3ccccc3O)o2)cc1,–,inconclusive: -4.6%
COc1ccc2c(c1OC)C(=O)OC2Nc1nc(-c2cc3ccccc3oc2=O)cs1 (stereo not drawn),"inconclusive: 18.4 µM [falling, single point]",–
COc1ccc(S(=O)(=O)N(C)CC(=O)NCCc2ccccc2)cc1OC,–,inconclusive: 0.378%
S=C(NCCN(C1CCCCC1)C1CCCC1)Nc1cccc(Cl)c1,"inconclusive: 35.5 µM [falling, partial curve, poor fit]",–
NC(=O)CC(NC(=O)Cc1ccc(Cl)cc1)c1ccc(NCCOc2ccccc2)c([N+](=O)[O-])c1 (stereo not drawn),"inconclusive: 11.2 µM [falling, partial curve, poor fit]",–
